Reference: paper PMC4196185
No constants are given. Whether binding was seen depends on the method and setting. Binding seen in cells or lysates may run through a third protein. Some entries that bind do so weakly or less than the wild type. For part of these data: Sequences can lack the tags named with a protein.

Protein sequences, listed by entry. Tags and fused reporters are not part of them.
UniProt O60346: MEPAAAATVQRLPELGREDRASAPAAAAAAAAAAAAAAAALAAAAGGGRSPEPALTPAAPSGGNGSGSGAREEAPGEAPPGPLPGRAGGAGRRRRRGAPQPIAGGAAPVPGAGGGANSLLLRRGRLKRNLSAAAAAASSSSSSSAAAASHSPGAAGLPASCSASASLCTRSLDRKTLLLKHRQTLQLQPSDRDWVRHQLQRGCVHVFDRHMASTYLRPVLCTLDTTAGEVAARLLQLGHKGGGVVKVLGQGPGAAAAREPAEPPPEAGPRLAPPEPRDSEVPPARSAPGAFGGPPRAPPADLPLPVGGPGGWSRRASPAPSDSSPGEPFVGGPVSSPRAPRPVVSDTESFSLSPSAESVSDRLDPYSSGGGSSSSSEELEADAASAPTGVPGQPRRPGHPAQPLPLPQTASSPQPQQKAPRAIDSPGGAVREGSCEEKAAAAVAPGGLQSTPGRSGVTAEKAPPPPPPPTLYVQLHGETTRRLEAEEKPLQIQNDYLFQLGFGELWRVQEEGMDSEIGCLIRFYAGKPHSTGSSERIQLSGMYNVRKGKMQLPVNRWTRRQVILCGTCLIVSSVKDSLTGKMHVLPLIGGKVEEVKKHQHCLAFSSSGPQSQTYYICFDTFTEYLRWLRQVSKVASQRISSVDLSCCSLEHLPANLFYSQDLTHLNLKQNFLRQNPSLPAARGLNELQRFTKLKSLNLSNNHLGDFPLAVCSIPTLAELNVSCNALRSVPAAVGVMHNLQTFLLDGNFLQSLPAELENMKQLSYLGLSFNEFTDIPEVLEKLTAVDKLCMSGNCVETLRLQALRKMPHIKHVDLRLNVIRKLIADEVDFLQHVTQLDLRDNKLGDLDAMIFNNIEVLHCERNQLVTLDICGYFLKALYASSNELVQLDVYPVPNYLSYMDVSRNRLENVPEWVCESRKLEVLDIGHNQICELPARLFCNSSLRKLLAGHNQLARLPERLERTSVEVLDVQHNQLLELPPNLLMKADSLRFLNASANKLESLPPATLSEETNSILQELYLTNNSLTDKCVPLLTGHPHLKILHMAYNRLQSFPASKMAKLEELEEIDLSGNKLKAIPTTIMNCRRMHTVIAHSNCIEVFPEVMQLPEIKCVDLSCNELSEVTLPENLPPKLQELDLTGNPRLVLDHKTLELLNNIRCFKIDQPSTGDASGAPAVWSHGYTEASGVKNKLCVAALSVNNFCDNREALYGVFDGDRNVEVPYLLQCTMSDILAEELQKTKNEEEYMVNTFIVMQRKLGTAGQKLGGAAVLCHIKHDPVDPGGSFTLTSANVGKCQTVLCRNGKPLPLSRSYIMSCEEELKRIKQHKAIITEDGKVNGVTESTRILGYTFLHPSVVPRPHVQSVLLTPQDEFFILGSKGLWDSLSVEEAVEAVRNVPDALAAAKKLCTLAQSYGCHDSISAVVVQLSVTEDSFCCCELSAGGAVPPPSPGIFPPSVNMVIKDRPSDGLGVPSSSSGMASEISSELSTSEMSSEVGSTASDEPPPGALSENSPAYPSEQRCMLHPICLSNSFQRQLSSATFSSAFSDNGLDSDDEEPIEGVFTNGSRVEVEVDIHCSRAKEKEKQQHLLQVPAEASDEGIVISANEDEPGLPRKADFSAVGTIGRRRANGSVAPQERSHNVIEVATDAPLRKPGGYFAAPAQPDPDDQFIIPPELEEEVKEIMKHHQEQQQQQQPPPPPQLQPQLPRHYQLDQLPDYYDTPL
UniProt O75317: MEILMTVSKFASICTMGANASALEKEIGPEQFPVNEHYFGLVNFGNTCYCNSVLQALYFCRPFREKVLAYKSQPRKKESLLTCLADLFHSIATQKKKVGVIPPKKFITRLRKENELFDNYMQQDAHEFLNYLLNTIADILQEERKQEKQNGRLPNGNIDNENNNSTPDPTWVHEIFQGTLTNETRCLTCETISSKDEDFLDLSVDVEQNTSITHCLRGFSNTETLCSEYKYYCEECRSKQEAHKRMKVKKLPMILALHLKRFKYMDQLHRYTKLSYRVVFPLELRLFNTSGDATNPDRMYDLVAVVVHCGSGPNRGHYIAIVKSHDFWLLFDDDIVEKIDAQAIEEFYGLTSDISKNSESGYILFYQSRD

T1: HA-PHLPPL (from pHA-PHLPPL) (UniProt Q6ZVD8)
T1 sequence: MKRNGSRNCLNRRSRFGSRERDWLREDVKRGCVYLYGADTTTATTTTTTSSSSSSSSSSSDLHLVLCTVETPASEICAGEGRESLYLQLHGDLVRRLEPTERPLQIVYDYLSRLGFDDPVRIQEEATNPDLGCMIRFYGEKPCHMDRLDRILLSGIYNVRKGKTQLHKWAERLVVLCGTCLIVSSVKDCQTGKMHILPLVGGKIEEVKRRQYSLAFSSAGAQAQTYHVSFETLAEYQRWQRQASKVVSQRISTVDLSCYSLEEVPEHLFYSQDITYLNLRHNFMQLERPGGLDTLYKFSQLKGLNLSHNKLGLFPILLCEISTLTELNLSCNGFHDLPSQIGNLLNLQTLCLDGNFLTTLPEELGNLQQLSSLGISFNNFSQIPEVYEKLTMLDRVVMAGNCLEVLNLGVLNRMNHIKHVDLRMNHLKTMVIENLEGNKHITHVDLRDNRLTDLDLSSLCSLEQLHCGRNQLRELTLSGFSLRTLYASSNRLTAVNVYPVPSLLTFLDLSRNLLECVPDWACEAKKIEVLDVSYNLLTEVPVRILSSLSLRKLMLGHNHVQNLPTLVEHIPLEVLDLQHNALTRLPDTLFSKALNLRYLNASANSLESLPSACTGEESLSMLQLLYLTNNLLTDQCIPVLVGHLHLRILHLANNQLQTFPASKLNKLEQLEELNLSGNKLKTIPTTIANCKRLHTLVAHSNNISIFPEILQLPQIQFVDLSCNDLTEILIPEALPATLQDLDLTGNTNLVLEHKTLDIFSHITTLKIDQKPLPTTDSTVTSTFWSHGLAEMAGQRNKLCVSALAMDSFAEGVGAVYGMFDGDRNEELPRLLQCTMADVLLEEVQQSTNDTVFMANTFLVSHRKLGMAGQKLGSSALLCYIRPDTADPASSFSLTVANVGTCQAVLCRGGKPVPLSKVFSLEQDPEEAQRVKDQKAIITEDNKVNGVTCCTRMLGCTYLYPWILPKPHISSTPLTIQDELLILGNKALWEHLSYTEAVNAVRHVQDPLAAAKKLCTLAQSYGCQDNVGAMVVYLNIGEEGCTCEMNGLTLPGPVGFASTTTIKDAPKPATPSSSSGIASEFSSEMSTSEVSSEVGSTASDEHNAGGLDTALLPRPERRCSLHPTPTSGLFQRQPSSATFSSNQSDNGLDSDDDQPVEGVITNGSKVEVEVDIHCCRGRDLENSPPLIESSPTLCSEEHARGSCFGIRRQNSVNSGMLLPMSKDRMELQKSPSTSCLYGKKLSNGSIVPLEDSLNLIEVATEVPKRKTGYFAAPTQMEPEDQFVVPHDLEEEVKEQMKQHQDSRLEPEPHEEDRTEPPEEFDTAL

T2: PHLPPL, endogenous in LNCaP (human (endogenous in LNCaP)) (UniProt Q6ZVD8)
T2 sequence: T1 sequence

B1: HA-Flag-WDR20 (from pHA-Flag-WDR20) (protein, UniProt Q8TBZ3 1-569)
chain: MATEGGGKEMNEIKTQFTTREGLYKLLPHSEYSRPNRVPFNSQGSNPVRVSFVNLNDQSGNGDRLCFNVGRELYFYIYKGVRKAADLSKPIDKRIYKGTQPTCHDFNHLTATAESVSLLVGFSAGQVQLIDPIKKETSKLFNEERLIDKSRVTCVKWVPGSESLFLVAHSSGNMYLYNVEHTCGTTAPHYQLLKQGESFAVHTCKSKSTRNPLLKWTVGEGALNEFAFSPDGKFLACVSQDGFLRVFNFDSVELHGTMKSYFGGLLCVCWSPDGKYIVTGGEDDLVTVWSFVDCRVIARGHGHKSWVSVVAFDPYTTSVEEGDPMEFSGSDEDFQDLLHFGRDRANSTQSRLSKRNSTDSRPVSVTYRFGSVGQDTQLCLWDLTEDILFPHQPLSRARTHTNVMNATSPPAGSNGNSVTTPGNSVPPPLPRSNSLPHSAVSNAGSKSSVMDGAIASGVSKFATLSLHDRKERHHEKDHKRNHSMGHISSKSSDKLNLVTKTKTDPAKTLGTPLCPRMEDVPLLEPLICKKIAHERLTVLIFLEDCIVTACQEGFICTWGRPGKVVSFNP
B2: WDR20, endogenous in LNCaP (protein, UniProt Q8TBZ3 1-569)
chain: B1 chain

Assays:
[1] = biological target: T1, HA-PHLPPL (from pHA-PHLPPL); assay: co-IP; COS-7 cells transfected with plasmids as indicated, 72h; lysates immunoprecipitated with PHLPP or PHLPPL antibody, 16h at 4°C, Protein G Sepharose; lysis buffer 50 mM Tris pH 7.5, 150 mM NaCl, 1% NP-40; immunoblotting
[2] = biological target: PHLPP (Pleckstrin Homology domain leucine rich repeat protein phosphatase), endogenous in LNCaP (human (endogenous in LNCaP)) (UniProt O60346); assay: co-IP; endogenous proteins; LNCaP lysates immunoprecipitated for PHLPP, PHLPPL or with non-specific IgG, 16h at 4°C, Protein G Sepharose; lysis buffer 50 mM Tris pH 7.5, 150 mM NaCl, 1% NP-40; immunoblotting
[3] = biological target: T2, PHLPPL, endogenous in LNCaP (human (endogenous in LNCaP)); assay: as above

| Molecule | binding [1] | binding [2] | binding [3] |
| --- | --- | --- | --- |
| Flag-Usp12 wild type (from pFlag-Usp12) (from UniProt O75317 1-370) (enzyme) | binds |  |  |
| Usp12, endogenous in LNCaP (from UniProt O75317 1-370) (enzyme) |  | binds | binds |
| B1 | binds |  |  |
| B2 |  | binds | binds |
